Measured data: PubChem BioAssay AID1259308 (NCATS, 2017)

- Aim: 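Genes whose loss raises luciferase production in HEK293 cells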 (primary screen)
- Cells: human HEK293 embryonic kidney cells stably expressing firefly luciferase (HEK-CMV-Luc2-Hygro)
- Reagent: single siRNA against human genes, 0.8 pmol siRNA per well
- Timing: 72 h
- Measurement: 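Reporter luminescence and viable-cell signal on separate replicate plates, given as percent of non-targeting control and median/MAD z-scores, plus per-cell luciferase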
- Scale: total luciferase, z-score and total luciferase, % of control: higher = more reporter protein produced
- Active means: 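An siRNA counts as active if its total luciferase robust z-score exceeds 3; genes with two or more such siRNAs out of three were retested with fresh siRNAs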
- Calls: active = raised luciferase; inactive = no rise
Shown is one part, drawn at random, of about 59,000 reagents tested. About 1,510 of all reagents (2.6%) were called active. 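Calls use total luciferase alone and ignore viability, so some active siRNAs may act by altering cell number.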 A number with no mark means an inactive call. Not all columns of the deposit are shown.

Knock-down of BMP15 [SID160721726] came out at: total luciferase, z-score 0.068; total luciferase, % of control 83.2.
Against BMP15 [SID160721727] the deposit lists total luciferase, z-score 0.322; total luciferase, % of control 88.3.
Knock-down of BMP15 [SID160721728] came out at: total luciferase, z-score 1.76; total luciferase, % of control 117.
STBD1 [SID160721231] gave total luciferase, z-score 0.348; total luciferase, % of control 88.8.
With knock-down of STBD1 [SID160721232], the screen gave total luciferase, z-score -0.145; total luciferase, % of control 79.
After knock-down of STBD1 [SID160721233] the results were total luciferase, z-score 0.683; total luciferase, % of control 95.5.
After knock-down of DOLPP1 [SID160745751], the record shows total luciferase, z-score -0.636; total luciferase, % of control 69.2.
Depletion of DOLPP1 [SID160745752] came out at: total luciferase, z-score -0.124; total luciferase, % of control 79.4.
DOLPP1 [SID160745753] showed total luciferase, z-score 0.327; total luciferase, % of control 88.4.
Against CRCT1 [SID160724436] the deposit lists total luciferase, z-score 0.808; total luciferase, % of control 98.
For CRCT1 [SID160741897] the deposit lists total luciferase, z-score -0.924; total luciferase, % of control 63.5.
Against CRCT1 [SID160741898], the values are total luciferase, z-score -1.78; total luciferase, % of control 46.5.

Quoted from above (2 entries):
BMP15 [SID160721726] — total luciferase, z-score = 0.068; total luciferase, % of control = 83.2
BMP15 [SID160721727] — total luciferase, z-score = 0.322; total luciferase, % of control = 88.3
